Some results were stated once for a whole list of compounds, not compound by compound.
Legend:
[1] = molecular target: T1, glucocorticoid receptor (GR) (Homo sapiens, UniProt P04150); test: Ligand binding assay (GR BIND), 3H-dexamethasone displacement, HeLa cell lysate; conditions: calculated using DEX as a reference
T1 construct: endogenous in cells; host or cells: HeLa (ATCC) cell lysate supernatant
T1 sequence (P04150 1-777): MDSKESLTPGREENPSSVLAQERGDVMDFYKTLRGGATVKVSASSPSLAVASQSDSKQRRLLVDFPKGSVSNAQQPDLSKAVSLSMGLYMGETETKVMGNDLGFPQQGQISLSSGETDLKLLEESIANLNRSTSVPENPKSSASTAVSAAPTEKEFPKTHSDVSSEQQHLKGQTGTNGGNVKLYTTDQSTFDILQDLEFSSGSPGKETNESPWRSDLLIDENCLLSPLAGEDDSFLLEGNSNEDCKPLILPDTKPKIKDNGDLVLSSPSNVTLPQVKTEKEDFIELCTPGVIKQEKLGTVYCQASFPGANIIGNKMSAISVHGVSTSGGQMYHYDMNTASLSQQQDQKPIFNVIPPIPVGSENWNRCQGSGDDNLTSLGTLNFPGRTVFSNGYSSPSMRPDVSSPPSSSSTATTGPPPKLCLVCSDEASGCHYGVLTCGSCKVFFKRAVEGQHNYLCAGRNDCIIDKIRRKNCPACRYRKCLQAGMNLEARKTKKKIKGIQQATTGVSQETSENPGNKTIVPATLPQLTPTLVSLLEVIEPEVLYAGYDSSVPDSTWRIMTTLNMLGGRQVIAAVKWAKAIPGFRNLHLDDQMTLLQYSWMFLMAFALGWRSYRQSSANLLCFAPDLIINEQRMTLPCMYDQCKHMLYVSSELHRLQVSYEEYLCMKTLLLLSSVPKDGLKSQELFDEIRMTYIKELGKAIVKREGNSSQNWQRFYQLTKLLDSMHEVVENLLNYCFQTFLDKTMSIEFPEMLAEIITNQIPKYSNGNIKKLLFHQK
Experimental: Binding Buffer: TEGM (10 mM Tris-HCl, 1 mM EDTA, 10% glycerol, 1 mM beta-mercaptoethanol, 10 mM Sodium Molybdate, pH 7.2)
50% HAP Slurry: Calbiochem Hydroxylapatite, Fast Flow, in 10 mM Tris, pH 8.0 and 1 mM EDTA.
Wash Buffer: 40 mM Tris, pH7.5, 100 mM KCl, 1 mM EDTA and 1 mM EGTA.
Dexmethasone-methyl-^3H, (DEX*); (Amersham cat# TRK645)
Dexamethasone (DEX) (Sigma, cat# D1756):
Phenol red-free Trypsin-EDTA is diluted in the same PBS 1:10. The cell layers are rinsed with 1× Trypsin, extra Trypsin is poured out, and the cell layers are incubated at 37° C. for ˜2 min. The flask is tapped and checked for signs of cell detachment. Once the cells begin to slide off the flask, the complete media is added. The cells are counted at this point, then diluted to the appropriate concentration and split into flasks or dishes for further culturing (Usually 1:3 to 1:6 dilution).
Preparation of Hela Cell Lysate
The cell pellet is washed twice with TEGM (10 mM Tris-HCl, 1 mM EDTA, 10% glycerol, 1 mM beta-mercaptoethanol, 10 mM Sodium Molybdate, pH 7.2). After the final wash, the cells are resuspended in TEGM at a concentration of 10^7 cells/mL. The cell suspension is snap frozen in liquid nitrogen or ethanol/dry ice bath and transferred to −80° C. freezer on dry ice. Before setting up the binding assay, the frozen samples are left on ice-water to just thaw (˜1 hr). Then the samples are centrifuged at 12,500 g to 20,000 g for 30 min at 4° C. The supernatant is used to set-up assay right away. If using 50 μL of supernatant, the test compound can be prepared in 50 μL of the TEGM buffer.
Procedure for Multiple Compound Screening
1×TEGM buffer is prepared, and the isotope-containing assay mixture is prepared in the following order: EtOH (2% final concentration in reaction), 3H-DEX (Amersham Biosciences) and 1×TEGM. [e.g. For 100 samples, 200 μL (100×2) of EtOH+4.25 μL of 1:10 ^3H-Dex stock+2300 μL (100×23) 1×TEGM]. The compound is serially diluted, e.g., if starting final conc. is 1 μM, and the compound is in 25 μL of solution, for duplicate samples, 75 μL of 4×1 μM solution is made and 3 μL of 100 μM is added to 72 μL of buffer, and 1:5 serial dilution.
25 μL of ^3H-DEX (6 nM) trace and 25 μL compound solution are first mixed together, followed by addition of 50 μL receptor solution. The reaction is gently mixed, spun briefly at about 200 rpm and incubated at 4° C. overnight. 100 μL of 50% HAP slurry is prepared and added to the incubated reaction which is then vortexed and incubated on ice for 5 to 10 minutes. The reaction mixture is vortexed twice more to resuspend HAP while incubating reaction. The samples in 96-well format are then washed in wash buffer using The FilterMate™ Universal Harvester plate washer (Packard). The washing process transfers HAP pellet containing ligand-bound expressed receptor to Unifilter-96 GF/B filter plate (Packard). The HAP pellet on the filter plate is incubated with 50 μL of MICROSCINT (Packard) scintillant for 30 minutes before being counted on the TopCount microscintillation counter (Packard). IC50s are calculated using DEX as a reference.

human GR = molecular target: T2, human GR (Homo sapiens, UniProt P04150); test: Trans-Activation Modulation of Glucocorticoid Receptor (GRAMMER), MMTV-LUC reporter gene; type: cell-based; design: endogenous in cells; conditions: GRAMMER versus GITAR
T2 sequence (P04150 1-777): T1 sequence (P04150 1-777)
Description: Trans-Activation Modulation of Glucocorticoid Receptor (GRAMMER)
This assay assesses the ability of test compounds to control transcription from the MMTV-LUC reporter gene in lung adenocarcinoma A549 cells or HeLa cells, a human […] cell line that naturally expresses the human GR. The assay measures induction of a modified MMTV LTR/promoter linked to the LUC reporter gene.
The routine transient assay consists of plating 7,000-25,000 cells/well of a white, clear-bottom 96-well plate. Alternatively, 384-well plates can be used at a cell concentration of 10,000/well. The media that the cells are plated in is “exponential growth medium” which consists of phenol red-free RPMI1640 containing 10% FBS, 4 mM L-glutamine, 20 mM HEPES, 10 ug/mL human insulin, and 20 ug/mL gentamicin. Incubator conditions are 37° C. and 5% CO2. The transfection is done in batch mode. The cells are trypsinized and counted to the right cell number in the proper amount of fresh media. It is then gently mixed with the FuGene6/DNA mix and plated onto the 96 or 384-well plate, all the wells receive 100 uL or 40 uL, respectively, of medium+lipid/DNA complex then incubated 37° C. overnight. The transfection cocktail consists of serum-free OptiMEM, FuGene6 reagent and DNA. The manufacturer's (Roche Biochemical) protocol for cocktail setup is as follows: The lipid to DNA ratio is approximately 2.5:1 and the incubation time is 20 min at room temperature. Sixteen to 24 hours after transfection, the cells are treated with dexamethasone to a final concentration of 10 nM as well as the compound of interest, such that final DMSO (vehicle) concentration is equal to or less than 1%. Each plate also contains samples that are treated with 10 nM dexamethasone alone, which is used as the 100% activity control. The cells are exposed to the compounds for 24 hours. After 24 hours, the cells are lysed by a Promega cell culture lysis buffer for approximately 30 min and then the luciferase activity in the extracts is assayed in the 96-well format luminometer. In 384-well format, Steady-Glo (Promega) or Steady-Lite (PerkinElmer) can be used by adding an equal volume of reagent to the media present in each well. Activity induced by 10 nM dexamethasone alone is set at 100% activity. Antagonist activity is calculated by determining the decrease in dexamethasone-induced activity in response to compound treatment relative to samples that were treated with dexamethasone alone. […] This transactivation assay can be performed in an agonist and antagonist mode to identify these different activities. […]

Structure (SMILES) | IC50 [1] | maximal transactivation activity compared with maximal transrepression activity (human GR)
C[C@]12Cc3cnn(-c4ccc(F)cc4)c3C=C1CC[C@@]2(O)CCc1ccccc1CNCC(F)(F)F [Example 104, (4αS,5R)-1-(4-fluorophenyl)-4α-methyl-5-[2-[2-{[(2,2,2-trifluoroethyl)amino]methyl}phenyl)ethyl]-1,4,4α,5,6,7-hexahydrocyclopenta[f]indazol-5-ol] | < 1 µM | maximal transactivation activity less then maximal transrepression activity
C[C@]12Cc3cnn(-c4ccccc4)c3C=C1CC[C@@]2(O)CCc1cccc(F)c1C(N)=O [Example 167, 2-fluoro-6-{2-[(4αS,5R)-5-hydroxy-4α-methyl-1-phenyl-1,4,4α,5,6,7-hexahydrocyclopenta[f]indazol-5-yl]ethyl}benzamide] | < 1 µM | maximal transactivation activity less then maximal transrepression activity
Cc1cccc(CC[C@]2(O)CCC3=Cc4c(cnn4-c4ccc(F)cc4)C[C@@]32C)c1C(N)=O [Example 182, 2-{2-[(4αS,5R)-1-(4-fluorophenyl)-5-hydroxy-4α-methyl-1,4,4α,5,6,7-hexahydrocyclopenta[f]indazol-5-yl]ethyl}-6-methylbenzamide] | < 1 µM | maximal transactivation activity less then maximal transrepression activity
C[C@]12Cc3cnn(-c4ccc(F)cc4)c3C=C1CC[C@@]2(O)CCc1ccccc1NS(=O)(=O)CC(F)(F)F [Example 118, 2,2,2-trifluoro-N-(2-{2-[(4αS,5R)-1-(4-fluorophenyl)-5-hydroxy-4α-methyl-1,4,4α,5,6,7-hexahydrocyclopenta[f]indazol-5-yl]ethyl}phenyl)ethanesulfonamide] | < 1 µM | maximal transactivation activity less then maximal transrepression activity
CCNS(=O)(=O)c1ccccc1CC[C@]1(O)CCC2=Cc3c(cnn3-c3ccc(F)cc3)C[C@@]21C [Example 137, N-ethyl-2-{2-[(4αS,5R)-1-(4-fluorophenyl)-5-hydroxy-4α-methyl-1,4,4α,5,6,7-hexahydrocyclopenta[f]indazol-5-yl]ethyl}benzenesulfonamide] | < 1 µM | maximal transactivation activity less then maximal transrepression activity
C[C@]12Cc3cnn(-c4ccc(F)cc4)c3C=C1CC[C@@]2(O)CCc1cccc(F)c1C#N [Example 145, 2-fluoro-6-{2-[(4αS,5R)-1-(4-fluorophenyl)-5-hydroxy-4α-methyl-1,4,4α,5,6,7-hexahydrocyclopenta[f]indazol-5-yl]ethyl}benzonitrile] | < 1 µM | maximal transactivation activity less then maximal transrepression activity
C[C@]12Cc3cnn(-c4ccc(F)cc4)c3C=C1CC[C@@]2(O)CCc1cc(F)ccc1C(N)=O [Example 166, 4-fluoro-2-{2-[(4αS,5R)-1-(4-fluorophenyl)-5-hydroxy-4α-methyl-1,4,4α,5,6,7-hexahydrocyclopenta[f]indazol-5-yl]ethyl}benzamide] | < 1 µM | maximal transactivation activity less then maximal transrepression activity
C[C@H](CNC(=O)c1ccccc1CC[C@]1(O)CCC2=Cc3c(cnn3-c3ccc(F)cc3)C[C@@]21C)C(F)(F)F [Example 45, 2-{2-[(4αS,5R)-1-(4-fluorophenyl)-5-hydroxy-4α-methyl-1,4,4α,5,6,7-hexahydrocyclopenta[f]indazol-5-yl]ethyl}-N-[(2R)-3,3,3-trifluoro-2-methylpropyl]benzamide] | < 1 µM | maximal transactivation activity less then maximal transrepression activity
C[C@]12Cc3cnn(-c4ccc(F)cc4)c3C=C1CC[C@@]2(O)CCc1ccccc1CNCC1CC1 [Example 103, (4αS,5R)-5-[2-(2-{[(cyclopropylmethyl}amino]methyl}phenyl)ethyl]-1-(4-fluorophenyl)-4α-methyl-1,4,4α,5,6,7-hexahydrocyclopenta[f]indazol-5-ol] | < 1 µM | maximal transactivation activity less then maximal transrepression activity
CN(C)S(=O)(=O)Nc1c(F)cccc1CC[C@]1(O)CCC2=Cc3c(cnn3-c3ccc(F)cc3)C[C@@]21C [Example 113, N′-(2-fluoro-6-{2-[(4αS,5R)-1-(4-fluorophenyl)-5-hydroxy-4α-methyl-1,4,4α,5,6,7-hexahydrocyclopenta[f]indazol-5-yl]ethyl}phenyl)-N,N-dimethylsulfamide] | < 1 µM | maximal transactivation activity less then maximal transrepression activity
